Test results reported in patent US20250115676A1.

B1: hMAB-A (2J.2) (antibody, V domains shown)
VH: EVQLVESGGGLVKPGGSLRLSCAASGFTFSSYWMHWVRQAPGKGLEWVGEIIPIFGHTNYNEKFKSRFTISLDNSKNTLYLQMGSLRAEDTAVYYCARGGYYYYYNSGTLDYWGQGTTVTVSS
VL: DIVMTQSPDSLAVSLGERATISCKASQSVDYSGDSYMNWYQQKPGQPPKLLIYAASDLESGIPARFSGSGSGTDFTLTISSLEPEDFATYYCQQSHEDPFTFGQGTKLEIK
B2: hMAB-A (2B.2) (antibody, V domains shown)
VH: B1 VH with Y105I, N106G, S107K, T109V
VL: B1 VL
B3: hMAB-A (2C.2) (antibody, V domains shown)
VH: B1 VH with Y105P, N106R, S107F, T109W
VL: B1 VL
B4: hMAB-A (2A.2) (antibody, V domains shown)
VH: B1 VH with Y105F
VL: B1 VL
B5: hMAB-A (2D.2) (antibody, V domains shown)
VH: B1 VH with Y105T, N106G, S107K, T109V
VL: B1 VL
B6: hMAB-A (2E.2) (antibody, V domains shown)
VH: B1 VH with Y105D, N106S, S107N, G108A, T109V
VL: B1 VL
B7: hMAB-A (2F.2) (antibody, V domains shown)
VH: B1 VH with Y105F, N106H
VL: B1 VL
B8: hMAB-A (2G.2) (antibody, V domains shown)
VH: B1 VH with Y105F, S107K, G108A, T109V
VL: B1 VL
B9: hMAB-A (2H.2) (antibody, V domains shown)
VH: B1 VH with Y105G, N106G, T109V
VL: B1 VL

These binders were tested against cynoADAM9-His (His peptide-tagged soluble cynoADAM9) (cynomolgus monkey) (assay: ELISA on cynoADAM9-His captured by anti-His antibody).

How did the binding turn out when B1 was run?
Its binding is “binds”.

Which binding does the source give for B2 here?
Its binding is “binds”.

For B3, which binding is on record?
The binding was “binds”.

Which binding does the source give for B4 here?
The binding was “binds”.

How did the binding turn out when B5 was run?
The binding was “binds”.

B6 was tested. Which binding did it give?
The binding was “binds”.

For B7, which binding is on record?
Its binding is “binds”.

For B8, which binding is on record?
The binding was “binds”.

Which binding does the source give for B9 here?
Its binding is “binds”.

The binders below were run against cynoADAM9-His (His peptide-tagged soluble cynoADAM9) (cynomolgus monkey) (assay: ELISA (RLU): cynoADAM9-His (1 µg/mL) captured by plate-coated anti-His antibody, serial dilutions of the antibody, about 0.03 to 1 µg/ml).

B1 was tested. Which binding did it give?
Its binding is “binds”.

B2 was tested. Which binding did it give?
Its binding is “binds”.

How did the binding turn out when B3 was run?
The binding was “binds”.

Which binding does the source give for B4 here?
Its binding is “binds”.

Which binding does the source give for B5 here?
Its binding is “binds”.

How did the binding turn out when B6 was run?
The binding was “binds”.

B7 was tested. Which binding did it give?
The binding was “binds”.

How did the binding turn out when B8 was run?
Its binding is “binds”.

B9 was tested. Which binding did it give?
The binding was “binds”.

Residue numbers refer to the chain shown, from its start. Results are given in words; binding and its absence hold for the method and conditions named. Binding can be weak; no strength is given.
